Results deposited as PubChem BioAssay AID686938 (Drosophila RNAi Screening Center, 2013).
Screen: 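Knock-downs reducing store-operated calcium influx in Drosophila cells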 (primary screen). System: Drosophila S2R+ cells. Reagents: long dsRNA against Drosophila genes, about 0.25 µg dsRNA per well, roughly 10,000 cells. Timing: 5 days of knock-down before the calcium assay. Conditions: thapsigargin (SERCA pump blocker) to empty calcium stores; entry signal taken 4 min after adding it. Read-out: 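Per-well fluo-4 fluorescence in two replicates, unnormalised, measured in resting cells and 4 min after store depletion by the SERCA blocker thapsigargin; ratio of the two present in few wells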. Direction: calcium entry signal: higher = stronger calcium signal after store depletion; entry to resting ratio: higher = more calcium entry relative to resting level; resting calcium signal: higher = higher resting calcium signal. Rule for the call: 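Called when the plate z-score of the entry-to-rest ratio, mean of duplicates, falls below −3; wells with low overall dye signal (Fmax z below −2) or more than five off-targets excluded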. Calls: active = strongly reduced calcium entry; inactive = no strong reduction.
The deposit covers about 23,000 reagents; this is an unselected part of those with a known target gene and a result. In the full data, 75 (0.33%) are marked active. 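Raw plate signals without normalisation; calls rest on plate z-scores that were not deposited; ratio present for only 364 wells.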 Reagents against one gene are numbered here. Not stated in the record: the dose of the treatment.

The opening 2 entries, to show the layout:
| predicted target | reagent | calcium entry signal, replicate 1 (fluorescence units) | calcium entry signal, replicate 2 (fluorescence units) | entry to resting ratio | resting calcium signal, replicate 1 (fluorescence units) | resting calcium signal, replicate 2 (fluorescence units) | outcome |
| --- | --- | --- | --- | --- | --- | --- | --- |
| CG4375 | 1 | 3.00e7 | 2.85e7 | – | 1.47e7 | 1.28e7 | inactive |
| ksr | 1 | 4.48e7 | 2.46e7 | – | 2.25e7 | 1.28e7 | inactive |

Results, from the first entry:
| predicted target | reagent | calcium entry signal, replicate 1 (fluorescence units) | calcium entry signal, replicate 2 (fluorescence units) | entry to resting ratio | resting calcium signal, replicate 1 (fluorescence units) | resting calcium signal, replicate 2 (fluorescence units) | outcome |
| --- | --- | --- | --- | --- | --- | --- | --- |
| CG4375 | 1 | 3.00e7 | 2.85e7 | – | 1.47e7 | 1.28e7 | inactive |
| ksr | 1 | 4.48e7 | 2.46e7 | – | 2.25e7 | 1.28e7 | inactive |
| rswl | 1 | 3.78e7 | 3.74e7 | – | 1.71e7 | 1.77e7 | inactive |
| Cad87A | 1 | 2.72e7 | 2.92e7 | – | 1.29e7 | 1.33e7 | inactive |
| CG5618 | 1 | 4.21e7 | 4.71e7 | – | 1.81e7 | 2.74e7 | inactive |
| numb | 1 | 4.23e7 | – | – | 1.86e7 | – | inactive |
| Mettl3 | 1 | 6.07e7 | 6.60e7 | – | 2.71e7 | 2.68e7 | inactive |
| Ski6 | 1 | 4.32e7 | 3.40e7 | – | 2.02e7 | 1.59e7 | inactive |
| HP1Lcsd | 1 | 2.26e7 | 3.49e7 | – | 1.21e7 | 1.52e7 | inactive |
| Br140 | 1 | 2.59e7 | – | – | 1.50e7 | – | inactive |
| ppk9 | 1 | 4.84e7 | 5.37e7 | – | 2.43e7 | 2.23e7 | inactive |
| ppk9 | 2 | 5.63e7 | 5.10e7 | – | 2.62e7 | 2.26e7 | inactive |
| Nepl14 | 1 | 5.60e7 | 5.45e7 | – | 2.60e7 | 2.33e7 | inactive |
| Coq8 | 1 | 3.41e7 | 4.71e7 | – | 1.81e7 | 2.34e7 | inactive |
| CG8461 | 1 | 3.01e7 | 3.21e7 | – | 1.39e7 | 1.38e7 | inactive |
| l(3)L1231 | 1 | 2.70e7 | 4.22e7 | – | 1.34e7 | 1.77e7 | inactive |
| CG8300 | 1 | 4.30e7 | 4.26e7 | – | 2.04e7 | 2.03e7 | inactive |
| CG8300 | 2 | 4.41e7 | 3.32e7 | – | 2.52e7 | 1.50e7 | inactive |
| Dh44 | 1 | 1.79e7 | 2.78e7 | – | 9.08e6 | 1.31e7 | inactive |
| Dh44 | 2 | 4.04e7 | 3.24e7 | – | 1.97e7 | 1.81e7 | inactive |
| Zmynd10 | 1 | 3.27e7 | 4.21e7 | – | 1.63e7 | 1.91e7 | inactive |
| Drs | 1 | 2.82e7 | 3.82e7 | – | 1.50e7 | 1.82e7 | inactive |
| CG17687 | 1 | 3.29e7 | 4.41e7 | – | 1.68e7 | 1.97e7 | inactive |
| Drep2 | 1 | 3.54e7 | 2.89e7 | – | 1.43e7 | 1.33e7 | inactive |
| Tsp33B | 1 | 3.24e7 | 4.86e7 | – | 1.73e7 | 2.09e7 | inactive |
| CG32563 | 1 | 3.98e7 | 2.97e7 | – | 2.10e7 | 1.36e7 | inactive |
| CG7341 | 1 | 3.92e7 | 5.48e7 | – | 1.85e7 | 3.66e7 | inactive |
| svp | 1 | 3.40e7 | 3.83e7 | – | 1.92e7 | 1.82e7 | inactive |
| svp | 2 | 1.60e7 | 2.42e7 | – | 1.10e7 | 1.43e7 | inactive |
| svp | 3 | 3.27e7 | 5.19e7 | – | 1.59e7 | 2.66e7 | inactive |
| CG7322 | 1 | 4.66e7 | 3.71e7 | – | 2.16e7 | 1.57e7 | inactive |
| pit | 1 | 2.18e7 | 2.59e7 | – | 1.28e7 | 6.55e7 | inactive |
| pit | 2 | 4.20e7 | 3.69e7 | – | 2.03e7 | 1.73e7 | inactive |
| CG30095 | 1 | 4.50e7 | 4.49e7 | – | 1.95e7 | 2.13e7 | inactive |
| Ehbp1 | 1 | 4.56e7 | 4.08e7 | – | 2.10e7 | 1.86e7 | inactive |
| Blos2 | 1 | 3.61e7 | 4.37e7 | – | 1.77e7 | 1.74e7 | inactive |
| CG11403 | 1 | 3.68e7 | 4.34e7 | – | 1.86e7 | 2.41e7 | inactive |
| CG1143 | 1 | 4.07e7 | 4.81e7 | – | 1.82e7 | 2.07e7 | inactive |
| fs(2)ltoPP43 | 1 | 2.69e7 | 4.13e7 | – | 1.40e7 | 1.69e7 | inactive |
| sr | 1 | 3.31e7 | 3.11e7 | – | 1.63e7 | 1.53e7 | inactive |
| sr | 2 | 3.73e7 | 3.65e7 | – | 3.93e7 | 1.71e7 | inactive |
| Muc68Ca | 1 | 4.28e7 | 3.17e7 | – | 2.19e7 | 1.47e7 | inactive |
| Muc68Ca | 2 | 2.16e7 | 3.00e7 | – | 1.14e7 | 1.29e7 | inactive |
| Vajk4 | 1 | 2.34e7 | 1.83e7 | – | 1.08e7 | 8.85e6 | inactive |
| Vajk4 | 2 | 4.12e7 | 4.24e7 | – | 1.84e7 | 1.97e7 | inactive |
| CG15765 | 1 | 3.15e7 | 3.41e7 | – | 1.51e7 | 1.80e7 | inactive |
| CG15765 | 2 | 3.92e7 | 3.55e7 | – | 1.89e7 | 1.70e7 | inactive |
| rogdi | 1 | 2.58e7 | 3.93e7 | – | 1.31e7 | 2.59e7 | inactive |
| Kdm4B | 1 | 4.40e7 | 3.35e7 | – | 2.01e7 | 1.58e7 | inactive |
| png | 1 | 3.48e7 | 3.79e7 | 2 | 1.77e7 | 1.63e7 | inactive |
| CG30338 | 1 | 3.00e7 | 4.94e7 | – | 1.57e7 | 2.07e7 | inactive |
| CG13625 | 1 | 3.18e7 | 3.40e7 | – | 1.92e7 | 1.84e7 | inactive |
| dpr11 | 1 | 4.53e7 | 2.97e7 | – | 2.32e7 | 1.56e7 | inactive |
| dpr11 | 2 | 3.92e7 | 3.18e7 | – | 2.11e7 | 1.51e7 | inactive |
| dpr11 | 3 | 4.80e7 | 3.33e7 | – | 2.18e7 | 1.64e7 | inactive |
| AhcyL2 | 1 | 2.86e7 | 4.19e7 | – | 1.50e7 | 5.61e7 | inactive |
| CG10459 | 1 | 4.26e7 | 3.49e7 | – | 1.98e7 | 1.57e7 | inactive |
| CG10459 | 2 | 3.62e7 | 3.80e7 | – | 1.70e7 | 2.16e7 | inactive |
